Data: the supplement of paper PMC6411743
± gives the standard deviation of the averaged measurements. This is a selection; strong and weak results do not stand in their true shares.

Amino acid sequences for entries named in this document (tags omitted). A change or cut given only in a name is not applied to a line headed by its entry.
UniProt Q9H7D7: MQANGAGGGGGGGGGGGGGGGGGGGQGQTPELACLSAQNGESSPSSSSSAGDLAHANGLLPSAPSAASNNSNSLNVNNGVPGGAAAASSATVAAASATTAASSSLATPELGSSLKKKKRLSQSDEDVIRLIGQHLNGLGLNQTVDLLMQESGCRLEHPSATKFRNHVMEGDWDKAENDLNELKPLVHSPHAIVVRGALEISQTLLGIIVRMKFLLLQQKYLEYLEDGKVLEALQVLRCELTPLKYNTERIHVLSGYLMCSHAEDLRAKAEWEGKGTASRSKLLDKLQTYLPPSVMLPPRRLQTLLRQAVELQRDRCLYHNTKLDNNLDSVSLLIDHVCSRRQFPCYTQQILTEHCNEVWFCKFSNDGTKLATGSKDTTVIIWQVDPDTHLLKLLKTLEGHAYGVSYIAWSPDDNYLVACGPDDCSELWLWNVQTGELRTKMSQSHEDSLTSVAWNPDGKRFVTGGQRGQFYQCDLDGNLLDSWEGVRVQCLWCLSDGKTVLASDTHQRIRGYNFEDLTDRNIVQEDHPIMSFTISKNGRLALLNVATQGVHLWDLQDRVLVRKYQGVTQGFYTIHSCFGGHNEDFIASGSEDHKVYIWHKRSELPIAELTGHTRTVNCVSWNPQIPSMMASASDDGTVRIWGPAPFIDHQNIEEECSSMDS
UniProt Q9H2F5, whole entry: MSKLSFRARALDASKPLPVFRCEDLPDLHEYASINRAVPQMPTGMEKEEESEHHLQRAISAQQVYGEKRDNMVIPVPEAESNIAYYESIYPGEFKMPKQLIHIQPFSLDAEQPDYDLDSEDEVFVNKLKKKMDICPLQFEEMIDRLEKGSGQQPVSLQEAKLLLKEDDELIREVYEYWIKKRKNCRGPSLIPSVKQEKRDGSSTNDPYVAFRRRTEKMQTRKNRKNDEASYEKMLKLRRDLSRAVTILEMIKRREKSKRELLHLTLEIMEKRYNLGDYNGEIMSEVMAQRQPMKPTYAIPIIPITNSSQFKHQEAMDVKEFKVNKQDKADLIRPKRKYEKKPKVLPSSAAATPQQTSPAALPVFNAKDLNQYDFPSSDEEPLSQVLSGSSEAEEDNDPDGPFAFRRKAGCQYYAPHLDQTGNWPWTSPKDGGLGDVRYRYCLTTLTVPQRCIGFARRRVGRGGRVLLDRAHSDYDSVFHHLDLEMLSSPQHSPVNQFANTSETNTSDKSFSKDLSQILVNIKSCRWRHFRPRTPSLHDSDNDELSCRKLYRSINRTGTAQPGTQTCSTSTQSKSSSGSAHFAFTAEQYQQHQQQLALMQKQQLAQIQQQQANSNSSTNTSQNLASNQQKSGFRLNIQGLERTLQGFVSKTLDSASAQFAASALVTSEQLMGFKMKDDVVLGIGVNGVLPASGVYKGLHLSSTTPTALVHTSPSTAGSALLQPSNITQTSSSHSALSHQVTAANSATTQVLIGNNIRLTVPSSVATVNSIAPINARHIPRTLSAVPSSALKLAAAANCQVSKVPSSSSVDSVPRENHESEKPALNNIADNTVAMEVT
UniProt Q9H0V9: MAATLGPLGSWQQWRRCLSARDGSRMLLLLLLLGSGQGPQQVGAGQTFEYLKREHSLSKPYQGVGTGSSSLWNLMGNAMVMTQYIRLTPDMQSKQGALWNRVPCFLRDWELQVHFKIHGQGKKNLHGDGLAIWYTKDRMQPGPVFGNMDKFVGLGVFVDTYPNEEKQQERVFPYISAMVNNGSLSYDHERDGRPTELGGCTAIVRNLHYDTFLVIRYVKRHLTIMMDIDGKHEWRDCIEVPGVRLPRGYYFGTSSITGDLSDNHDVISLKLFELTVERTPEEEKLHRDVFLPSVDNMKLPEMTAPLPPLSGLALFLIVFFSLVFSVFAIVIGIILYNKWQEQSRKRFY
UniProt Q9HD34: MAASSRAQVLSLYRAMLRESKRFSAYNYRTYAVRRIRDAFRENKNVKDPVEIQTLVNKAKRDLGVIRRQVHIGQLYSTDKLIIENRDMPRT
UniProt Q9H857: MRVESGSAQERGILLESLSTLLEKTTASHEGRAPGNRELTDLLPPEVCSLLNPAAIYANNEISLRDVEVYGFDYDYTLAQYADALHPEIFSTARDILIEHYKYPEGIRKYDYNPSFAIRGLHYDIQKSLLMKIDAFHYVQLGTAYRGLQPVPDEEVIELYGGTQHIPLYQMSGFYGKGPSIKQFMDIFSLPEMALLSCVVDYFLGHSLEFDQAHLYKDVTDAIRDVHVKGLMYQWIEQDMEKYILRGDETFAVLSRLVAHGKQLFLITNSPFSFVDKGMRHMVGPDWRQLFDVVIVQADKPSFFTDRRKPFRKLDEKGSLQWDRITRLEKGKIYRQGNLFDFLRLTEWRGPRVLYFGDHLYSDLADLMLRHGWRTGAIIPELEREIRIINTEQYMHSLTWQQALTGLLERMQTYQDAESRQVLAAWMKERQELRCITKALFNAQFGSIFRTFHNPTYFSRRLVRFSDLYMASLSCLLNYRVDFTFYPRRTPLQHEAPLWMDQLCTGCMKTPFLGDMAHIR
UniProt Q9HBM1: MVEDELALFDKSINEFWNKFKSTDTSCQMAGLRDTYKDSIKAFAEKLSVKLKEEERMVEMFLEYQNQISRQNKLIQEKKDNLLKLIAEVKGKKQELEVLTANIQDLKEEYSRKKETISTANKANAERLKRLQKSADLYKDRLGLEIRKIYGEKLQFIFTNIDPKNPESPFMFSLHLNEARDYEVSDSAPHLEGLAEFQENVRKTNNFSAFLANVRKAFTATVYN
UniProt Q9H9P8: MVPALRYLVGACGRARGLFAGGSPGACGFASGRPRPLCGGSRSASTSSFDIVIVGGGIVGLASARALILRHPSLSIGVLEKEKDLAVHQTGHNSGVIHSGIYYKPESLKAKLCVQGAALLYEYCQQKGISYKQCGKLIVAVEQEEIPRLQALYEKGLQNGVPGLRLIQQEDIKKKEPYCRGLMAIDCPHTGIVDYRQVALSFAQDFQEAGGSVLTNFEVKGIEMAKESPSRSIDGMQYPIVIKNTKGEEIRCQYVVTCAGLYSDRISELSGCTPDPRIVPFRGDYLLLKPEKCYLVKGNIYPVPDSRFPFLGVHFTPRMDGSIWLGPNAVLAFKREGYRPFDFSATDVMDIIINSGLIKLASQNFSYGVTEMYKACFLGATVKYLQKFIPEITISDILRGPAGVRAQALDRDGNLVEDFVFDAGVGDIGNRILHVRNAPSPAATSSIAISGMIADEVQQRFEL
UniProt Q9GZR1: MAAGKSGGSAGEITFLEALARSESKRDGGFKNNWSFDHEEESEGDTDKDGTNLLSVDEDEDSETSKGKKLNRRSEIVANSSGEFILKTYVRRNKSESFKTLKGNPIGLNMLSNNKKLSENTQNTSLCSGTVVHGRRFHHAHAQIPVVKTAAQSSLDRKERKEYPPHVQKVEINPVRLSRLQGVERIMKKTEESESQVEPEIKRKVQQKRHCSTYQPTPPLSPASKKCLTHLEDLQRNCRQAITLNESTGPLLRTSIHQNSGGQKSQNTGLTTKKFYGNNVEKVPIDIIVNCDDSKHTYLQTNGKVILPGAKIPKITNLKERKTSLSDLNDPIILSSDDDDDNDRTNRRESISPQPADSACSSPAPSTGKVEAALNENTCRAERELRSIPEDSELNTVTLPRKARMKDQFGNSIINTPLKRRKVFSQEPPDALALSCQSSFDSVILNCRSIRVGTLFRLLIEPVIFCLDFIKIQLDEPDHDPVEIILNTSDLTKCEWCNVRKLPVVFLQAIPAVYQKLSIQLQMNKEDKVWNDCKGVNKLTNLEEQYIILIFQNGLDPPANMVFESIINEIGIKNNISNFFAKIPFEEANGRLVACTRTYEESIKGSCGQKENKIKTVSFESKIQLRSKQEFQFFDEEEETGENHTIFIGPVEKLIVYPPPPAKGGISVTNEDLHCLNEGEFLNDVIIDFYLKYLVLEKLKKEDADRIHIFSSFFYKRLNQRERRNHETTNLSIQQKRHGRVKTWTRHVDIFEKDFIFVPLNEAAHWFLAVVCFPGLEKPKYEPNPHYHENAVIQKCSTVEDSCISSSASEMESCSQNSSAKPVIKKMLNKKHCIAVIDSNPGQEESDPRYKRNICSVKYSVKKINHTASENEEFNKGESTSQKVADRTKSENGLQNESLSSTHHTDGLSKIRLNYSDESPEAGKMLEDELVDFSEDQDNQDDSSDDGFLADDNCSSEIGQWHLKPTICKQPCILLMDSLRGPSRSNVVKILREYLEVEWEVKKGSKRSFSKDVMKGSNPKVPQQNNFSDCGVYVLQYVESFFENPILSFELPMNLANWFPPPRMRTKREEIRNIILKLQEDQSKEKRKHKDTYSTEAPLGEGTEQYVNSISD
UniProt Q9C0C2: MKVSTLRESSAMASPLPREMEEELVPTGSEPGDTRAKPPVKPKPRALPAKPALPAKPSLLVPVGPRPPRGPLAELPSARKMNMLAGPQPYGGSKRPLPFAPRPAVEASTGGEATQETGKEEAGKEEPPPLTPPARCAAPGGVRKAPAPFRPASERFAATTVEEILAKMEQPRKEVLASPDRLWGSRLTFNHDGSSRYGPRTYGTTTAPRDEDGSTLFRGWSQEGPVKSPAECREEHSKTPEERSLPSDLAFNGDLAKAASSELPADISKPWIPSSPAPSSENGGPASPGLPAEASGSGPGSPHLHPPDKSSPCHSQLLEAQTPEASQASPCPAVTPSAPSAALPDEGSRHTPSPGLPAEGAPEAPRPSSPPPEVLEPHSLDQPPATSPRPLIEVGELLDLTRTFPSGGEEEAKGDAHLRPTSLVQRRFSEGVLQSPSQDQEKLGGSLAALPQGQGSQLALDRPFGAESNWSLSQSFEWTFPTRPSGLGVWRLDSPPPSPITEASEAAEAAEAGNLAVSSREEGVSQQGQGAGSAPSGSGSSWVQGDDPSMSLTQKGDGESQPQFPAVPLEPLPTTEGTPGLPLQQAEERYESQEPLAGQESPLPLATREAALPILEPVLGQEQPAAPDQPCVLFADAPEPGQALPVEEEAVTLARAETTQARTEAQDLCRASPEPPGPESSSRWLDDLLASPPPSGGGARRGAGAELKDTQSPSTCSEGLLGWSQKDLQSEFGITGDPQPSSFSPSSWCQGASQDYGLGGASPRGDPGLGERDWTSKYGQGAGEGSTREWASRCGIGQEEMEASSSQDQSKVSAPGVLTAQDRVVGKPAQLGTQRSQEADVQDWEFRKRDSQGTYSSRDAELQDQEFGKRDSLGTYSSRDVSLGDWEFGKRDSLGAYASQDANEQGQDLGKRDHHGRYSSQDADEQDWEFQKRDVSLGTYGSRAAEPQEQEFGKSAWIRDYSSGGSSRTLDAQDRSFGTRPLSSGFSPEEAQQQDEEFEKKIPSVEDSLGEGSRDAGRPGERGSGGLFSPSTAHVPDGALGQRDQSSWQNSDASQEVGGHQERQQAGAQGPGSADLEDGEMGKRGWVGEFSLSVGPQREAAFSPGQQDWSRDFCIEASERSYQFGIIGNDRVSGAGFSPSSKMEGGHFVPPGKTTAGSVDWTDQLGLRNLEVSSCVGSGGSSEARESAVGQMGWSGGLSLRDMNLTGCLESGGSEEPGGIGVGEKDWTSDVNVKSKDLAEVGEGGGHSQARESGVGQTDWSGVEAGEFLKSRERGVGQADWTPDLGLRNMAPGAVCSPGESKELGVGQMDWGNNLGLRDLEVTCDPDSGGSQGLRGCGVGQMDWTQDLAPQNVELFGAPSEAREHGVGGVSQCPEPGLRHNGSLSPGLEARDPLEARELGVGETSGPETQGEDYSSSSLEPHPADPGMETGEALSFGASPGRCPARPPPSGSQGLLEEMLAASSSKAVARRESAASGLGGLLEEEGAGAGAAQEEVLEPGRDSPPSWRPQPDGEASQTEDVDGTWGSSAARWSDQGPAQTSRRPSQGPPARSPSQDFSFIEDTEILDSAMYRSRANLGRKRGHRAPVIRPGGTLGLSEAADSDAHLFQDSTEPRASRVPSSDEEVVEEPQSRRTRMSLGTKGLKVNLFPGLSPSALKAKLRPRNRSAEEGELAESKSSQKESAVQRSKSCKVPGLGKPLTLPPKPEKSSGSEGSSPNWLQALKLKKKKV
UniProt Q9H9A6: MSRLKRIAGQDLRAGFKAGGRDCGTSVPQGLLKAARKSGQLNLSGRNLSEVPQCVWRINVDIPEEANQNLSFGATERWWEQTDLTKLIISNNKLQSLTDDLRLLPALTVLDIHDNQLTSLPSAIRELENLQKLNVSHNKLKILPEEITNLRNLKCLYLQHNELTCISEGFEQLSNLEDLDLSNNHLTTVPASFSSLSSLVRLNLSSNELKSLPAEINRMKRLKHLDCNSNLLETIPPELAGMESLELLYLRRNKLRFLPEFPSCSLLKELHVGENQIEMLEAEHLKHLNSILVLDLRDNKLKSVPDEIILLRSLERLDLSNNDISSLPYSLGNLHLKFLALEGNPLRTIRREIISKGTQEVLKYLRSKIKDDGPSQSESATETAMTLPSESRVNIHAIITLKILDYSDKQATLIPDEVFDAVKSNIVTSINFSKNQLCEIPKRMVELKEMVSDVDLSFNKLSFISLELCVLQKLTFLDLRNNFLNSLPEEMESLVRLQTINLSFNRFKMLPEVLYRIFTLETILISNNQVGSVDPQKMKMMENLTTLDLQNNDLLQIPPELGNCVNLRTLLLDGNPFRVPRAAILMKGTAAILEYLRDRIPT

Compound: Nc1ncnc2c1ncn2[C@@H]1O[C@H](COP(=O)(O)OP(=O)(O)NP(=O)(O)O)[C@@H](O)[C@H]1O [adenylyl imidodiphosphate]
Experiment: NP40-soluble protein abundance relative to vehicle (solubility fold change) (ratio); higher = more soluble protein in presence of AMP-PNP
In short: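 Across three independent experiments, values are fold changes against the detergent-processed vehicle for each replicate, based on vsn-normalised intensities. The samples were Jurkat crude lysate treated with eight concentrations (0.1 to 10 mM) for 10 min at room temperature and then 3 min at 37 °C. Lysate was solubilised with 0.8% NP40 and benzonase, ultracentrifuged, and the supernatant analysed by TMT-labelled LC-MS/MS.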

Target	NP40-soluble protein abundance (concentration: 1mM)	NP40-soluble protein abundance (concentration: 2mM)	NP40-soluble protein abundance (concentration: 4mM)	NP40-soluble protein abundance (concentration: 6mM)	NP40-soluble protein abundance (concentration: 8mM)	NP40-soluble protein abundance (concentration: 10mM)
RABEP2 (UniProt Q9H5N1)	1.01 ± 0.042	1.06 ± 0.059	1.01 ± 0.077	0.973 ± 0.026	0.959 ± 0.016	0.956 ± 0.051
SLC38A10 (UniProt Q9HBR0)	0.993 ± 0.025	0.993 ± 0.025	0.981 ± 0.018	0.968 ± 0.061	0.976 ± 0.03	0.954 ± 0.045
UniProt Q9H4A5-2|Q5T5I6 and related entries	1.02 ± 0.024	1.04 ± 0.047	1.03 ± 0.035	1.03 ± 0.013	1.05 ± 0.035	1.01 ± 0.022
UPF2 (UniProt Q9HAU5)	0.998 ± 0.03	1.02 ± 0.059	0.999 ± 0.015	1.005 ± 0.01	1.007 ± 0.0027	1.02 ± 0.013
MED20 (UniProt Q9H944)	0.959 ± 0.016	0.911 ± 0.033	0.963 ± 0.03	1.04 ± 0.057	1.04 ± 0.047	1.04 ± 0.05
TAF9B (UniProt Q9HBM6)	1.01 ± 0.012	1.06 ± 0.063	1.02 ± 0.05	0.979 ± 0.057	1.02 ± 0.065	1.07 ± 0.074
MOV10 (UniProt Q9HCE1)	0.952 ± 0.027	0.867 ± 0.15	0.932 ± 0.09	0.938 ± 0.032	0.944 ± 0.08	0.889 ± 0.12
FTO (UniProt Q9C0B1)	0.98 ± 0.02	0.942 ± 0.043	0.9778 ± 0.0041	0.955 ± 0.018	0.9727 ± 0.0014	0.936 ± 0.016
UniProt Q9HD26 and related entries	0.977 ± 0.02	0.9749 ± 0.0067	0.9551 ± 0.0094	0.942 ± 0.017	0.942 ± 0.033	0.9086 ± 0.0073
UniProt Q9H7D7 and related entries	0.966 ± 0.03	0.925 ± 0.09	0.957 ± 0.092	0.943 ± 0.046	0.931 ± 0.049	0.928 ± 0.12
RPAP3 (UniProt Q9H6T3)	1.02 ± 0.031	1.05 ± 0.034	1.01 ± 0.021	0.998 ± 0.042	0.9611 ± 0.0081	0.993 ± 0.019
UniProt Q9H165 and related entries	0.957 ± 0.022	0.977 ± 0.037	0.965 ± 0.018	0.937 ± 0.013	0.952 ± 0.048	0.963 ± 0.029
UniProt Q9H2F5-2|Q9H2F5 and related entries	0.9929 ± 0.0039	0.982 ± 0.065	0.978 ± 0.035	0.986 ± 0.014	1.004 ± 0.0054	1.01 ± 0.032
WDR61 (UniProt Q9GZS3)	0.956 ± 0.015	0.916 ± 0.077	0.961 ± 0.02	0.92 ± 0.018	0.961 ± 0.025	0.918 ± 0.035
UniProt Q9H0V9 and related entries	1.02 ± 0.042	0.965 ± 0.052	0.973 ± 0.055	0.984 ± 0.059	1.02 ± 0.041	0.978 ± 0.031
LYRM4 (UniProt Q9HD34)	0.95 ± 0.035	0.941 ± 0.046	0.943 ± 0.024	0.96 ± 0.045	0.976 ± 0.03	0.952 ± 0.038
UniProt Q9HBM0 and related entries	0.9994 ± 0.0068	0.9816 ± 0.0096	0.994 ± 0.015	0.9772 ± 0.0085	0.9691 ± 0.0064	0.963 ± 0.018
UniProt Q9H019 and related entries	1.02 ± 0.036	1.04 ± 0.053	1 ± 0.075	1.02 ± 0.024	1.01 ± 0.018	1.01 ± 0.058
UniProt Q9H8M7	0.968 ± 0.01	0.97 ± 0.019	1 ± 0.033	0.985 ± 0.022	0.979 ± 0.014	0.982 ± 0.021
SSU72 (UniProt Q9NP77)	1.04 ± 0.06	1.06 ± 0.026	1.02 ± 0.065	1.02 ± 0.053	1.04 ± 0.03	1.07 ± 0.047

Full records as entered above:
LYRM4 (UniProt Q9HD34) in the list: NP40-soluble protein abundance (concentration: 1mM): 0.95 ± 0.035; NP40-soluble protein abundance (concentration: 2mM): 0.941 ± 0.046; NP40-soluble protein abundance (concentration: 4mM): 0.943 ± 0.024; NP40-soluble protein abundance (concentration: 6mM): 0.96 ± 0.045; NP40-soluble protein abundance (concentration: 8mM): 0.976 ± 0.03; NP40-soluble protein abundance (concentration: 10mM): 0.952 ± 0.038
WDR61 (UniProt Q9GZS3) in the list: NP40-soluble protein abundance (concentration: 1mM): 0.956 ± 0.015; NP40-soluble protein abundance (concentration: 2mM): 0.916 ± 0.077; NP40-soluble protein abundance (concentration: 4mM): 0.961 ± 0.02; NP40-soluble protein abundance (concentration: 6mM): 0.92 ± 0.018; NP40-soluble protein abundance (concentration: 8mM): 0.961 ± 0.025; NP40-soluble protein abundance (concentration: 10mM): 0.918 ± 0.035

Additional entries follow.

Target	NP40-soluble protein abundance (concentration: 1mM)	NP40-soluble protein abundance (concentration: 2mM)	NP40-soluble protein abundance (concentration: 4mM)	NP40-soluble protein abundance (concentration: 6mM)	NP40-soluble protein abundance (concentration: 8mM)	NP40-soluble protein abundance (concentration: 10mM)
UniProt Q9H857 and related entries	0.953 ± 0.025	0.872 ± 0.1	0.933 ± 0.037	0.912 ± 0.02	0.936 ± 0.017	0.886 ± 0.038
SPC25 (UniProt Q9HBM1)	0.974 ± 0.05	1.03 ± 0.15	1.01 ± 0.099	1.04 ± 0.097	1.05 ± 0.074	1.06 ± 0.087
UniProt Q9HC21 and related entries	0.969 ± 0.035	0.907 ± 0.024	0.958 ± 0.061	0.973 ± 0.059	1.02 ± 0.073	0.99 ± 0.079
BOLA2 (UniProt Q9H3K6)	0.981 ± 0.029	1.04 ± 0.051	0.974 ± 0.045	1.05 ± 0.11	1.04 ± 0.098	1.02 ± 0.1
CBX8 (UniProt Q9HC52)	1.08 ± 0.015	1.1 ± 0.04	1.13 ± 0.018	1.23 ± 0.028	1.33 ± 0.062	1.39 ± 0.044
L2HGDH (UniProt Q9H9P8)	1.008 ± 0.0097	0.943 ± 0.013	0.952 ± 0.014	0.968 ± 0.029	0.958 ± 0.013	0.933 ± 0.013
PTGES2 (UniProt Q9H7Z7)	0.985 ± 0.041	0.962 ± 0.024	0.978 ± 0.076	0.968 ± 0.052	0.949 ± 0.045	0.967 ± 0.069
UniProt Q9GZR1 and related entries	1 ± 0.037	1.02 ± 0.029	0.971 ± 0.021	0.99 ± 0.033	0.983 ± 0.025	0.984 ± 0.015
TNKS1BP1 (UniProt Q9C0C2)	0.971 ± 0.023	1.02 ± 0.019	1.05 ± 0.024	1.02 ± 0.091	1.02 ± 0.067	1.05 ± 0.069
PLEKHA1 (UniProt Q9HB21)	1.01 ± 0.029	1.02 ± 0.078	1.03 ± 0.043	1.05 ± 0.032	1.03 ± 0.043	1.096 ± 0.0045
LRRC40 (UniProt Q9H9A6)	0.993 ± 0.074	0.943 ± 0.057	0.955 ± 0.051	0.918 ± 0.065	0.928 ± 0.064	0.939 ± 0.051
UniProt Q9HC36	1.05 ± 0.047	1.1 ± 0.088	1.23 ± 0.12	1.37 ± 0.18	1.51 ± 0.22	1.6 ± 0.28
MEGF9 (UniProt Q9H1U4)	1.01 ± 0.038	1.01 ± 0.051	1.005 ± 0.0014	1.03 ± 0.035	0.977 ± 0.023	1.01 ± 0.013
UniProt Q9H7Z3	1.01 ± 0.03	1.03 ± 0.035	1.05 ± 0.04	1.08 ± 0.04	1.07 ± 0.058	1.08 ± 0.054
PHAX (UniProt Q9H814)	1.02 ± 0.025	1.06 ± 0.043	1.05 ± 0.058	0.994 ± 0.03	0.995 ± 0.033	1.04 ± 0.078
UniProt Q9HCC0-2	0.993 ± 0.021	0.967 ± 0.015	0.961 ± 0.0066	0.963 ± 0.054	0.932 ± 0.021	0.955 ± 0.017
RDH14 (UniProt Q9HBH5)	1.02 ± 0.036	0.99 ± 0.01	1.02 ± 0.071	1.03 ± 0.091	1.11 ± 0.085	1.06 ± 0.082
KDM4C (UniProt Q9H3R0)	0.989 ± 0.015	0.992 ± 0.029	0.9676 ± 0.0034	0.99 ± 0.025	0.992 ± 0.022	0.99 ± 0.017
CACYBP (UniProt Q9HB71)	1.018 ± 0.0083	1.06 ± 0.076	0.975 ± 0.013	1.04 ± 0.0074	1.01 ± 0.032	1.03 ± 0.034
PTPN23 (UniProt Q9H3S7)	1.002 ± 0.0026	1.02 ± 0.031	1.016 ± 0.0094	1.01 ± 0.035	1 ± 0.023	1.02 ± 0.012
